# Record: PubChem BioAssay AID1159584 (Peter MacCallum Cancer Centre, 2016)
# Purpose: 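Genes whose loss is lethal only together with E-cadherin loss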 (primary screen)
# Cells: human MCF10A breast epithelial cells, parental and CDH1-null
# Reagents: siRNA against human genes
# Measured: 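ATP luminescence (CellTiter-Glo) viability per line relative to mean mock wells over all plates, and the ratio of CDH1-null to parental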
# Direction: CDH1-null / parental viability ratio: higher = CDH1-null cells survive relatively better than parental
# Shown is one part, drawn at random, of about 18,000 reagents. Not all columns of the deposit are shown. The record does not give: the amount of reagent, the time to read-out.
gene knocked down,CDH1-null / parental viability ratio
TXN2 (thioredoxin 2),0.89
S100A7A (S100 calcium binding protein A7A),0.94
PER1 (period circadian regulator 1),1.27
NOXA1 (NADPH oxidase activator 1),1.19
TSPAN13 (tetraspanin 13),1.14
CRYBG3 (crystallin beta-gamma domain containing 3),1.38
PIEZO2 (piezo type mechanosensitive ion channel component 2),1.01
ZNF418 (zinc finger protein 418),0.9
PRSS36 (serine protease 36),1.08
HPS3 (HPS3 biogenesis of lysosomal organelles complex 2 subunit 1),1.07
C1QL1 (complement C1q like 1),1.55
BUD31 (BUD31 spliceosome associated protein),1.07
SYTL5 (synaptotagmin like 5),1.02
OR2W5,0.98
COL4A6 (collagen type IV alpha 6 chain),1.26
CR2 (complement C3d receptor 2),1.13
FCN3 (ficolin 3),1.22
"SAMSN1 (SAM domain, SH3 domain and nuclear localization signals 1)",1.1
PRKCG (protein kinase C gamma),0.96
OR4D6 (olfactory receptor family 4 subfamily D member 6),1.67
TMEM243 (transmembrane protein 243),0.86
SACK1H (scaffolding CK1 anchoring protein H),1.13
KPNA4 (karyopherin subunit alpha 4),1.05
ZNRD2 (zinc ribbon domain containing 2),0.75
PLD3 (phospholipase D family member 3),1.04
CYFIP1 (cytoplasmic FMR1 interacting protein 1),0.83
RFLNA (refilin A),1.21
CTDP1 (CTD phosphatase 1),1.33
PARP14 (poly(ADP-ribose) polymerase family member 14),0.97
SHROOM3 (shroom family member 3),0.97
TBCE (tubulin folding cofactor E),1.03
BRD10 (bromodomain containing 10),0.84
TBP (TATA-box binding protein),0.74
SNTG1 (syntrophin gamma 1),0.9
NANOG (Nanog homeobox),0.94
RUFY3 (RUN and FYVE domain containing 3),0.86

Reprinted from the listing for reference:
gene knocked down,CDH1-null / parental viability ratio
CYFIP1 (cytoplasmic FMR1 interacting protein 1),0.83
RFLNA (refilin A),1.21
CTDP1 (CTD phosphatase 1),1.33
PARP14 (poly(ADP-ribose) polymerase family member 14),0.97
SHROOM3 (shroom family member 3),0.97
TBCE (tubulin folding cofactor E),1.03
BRD10 (bromodomain containing 10),0.84
TBP (TATA-box binding protein),0.74

The listing continues.
gene knocked down,CDH1-null / parental viability ratio
ITK (IL2 inducible T cell kinase),1.09
GM2A (ganglioside GM2 activator),1.02
PPP2R5A (protein phosphatase 2 regulatory subunit B'alpha),1.25
REC114 (REC114 meiotic recombination protein),1.11
RGS10 (regulator of G protein signaling 10),1.08
FOXJ3 (forkhead box J3),1.06
CRLF1 (cytokine receptor like factor 1),0.94
"ADPRM (ADP-ribose/CDP-alcohol diphosphatase, manganese dependent)",1.01
GNAQ (G protein subunit alpha q),1.29
FTL (ferritin light chain),1.07
RPS4Y1 (ribosomal protein S4 Y-linked 1),1.55
RAB11FIP5 (RAB11 family interacting protein 5),0.74
PEAK1 (pseudopodium enriched atypical kinase 1),0.86
OSTN (osteocrin),1.06
ZNF84 (zinc finger protein 84),1.12
PRMT1 (protein arginine methyltransferase 1),0.94
ASCL3 (achaete-scute family bHLH transcription factor 3),1.72
ATP2B1 (ATPase plasma membrane Ca2+ transporting 1),1.05
MAP4K3 (mitogen-activated protein kinase kinase kinase kinase 3),0.73
OPRL1 (opioid related nociceptin receptor 1),0.81
TMEM255A (transmembrane protein 255A),1.05
CA5B (carbonic anhydrase 5B),0.84
TBX10 (T-box transcription factor 10),0.73
"PMEPA1 (prostate transmembrane protein, androgen induced 1)",1.05
DGCR6L (DiGeorge syndrome critical region gene 6 like),1.22
DLEU7 (deleted in lymphocytic leukemia 7),1.21
KIAA0319,1.05
TRO (trophinin),1.24
SPICE1 (spindle and centriole associated protein 1),1.06
SUSD3 (sushi domain containing 3),1.08
OBSL1 (obscurin like cytoskeletal adaptor 1),1.07
TP53 (tumor protein p53),1.15
PLA2G4A (phospholipase A2 group IVA),0.85
EIF1AY (eukaryotic translation initiation factor 1A Y-linked),1.04
SV2B (synaptic vesicle glycoprotein 2B),0.96
DENR (density regulated re-initiation and release factor),1.04
CEP68 (centrosomal protein 68),1.23
TESC (tescalcin),0.88
NBPF15 (NBPF member 15),1.02
CHRND (cholinergic receptor nicotinic delta subunit),1.29
SMDT1 (single-pass membrane protein with aspartate rich tail 1),1.12
RNF125 (ring finger protein 125),0.96
CIMIP1 (ciliary microtubule inner protein 1),0.9
ARHGAP44 (Rho GTPase activating protein 44),0.91
KCNB2 (potassium voltage-gated channel subfamily B member 2),1.06
"RBSN (rabenosyn, RAB effector)",1
SLC25A2,1
TFIP11 (tuftelin interacting protein 11),0.97
TAGLN2 (transgelin 2),0.97
"WASH5P (WASP family homolog 5, pseudogene)",1.06
ZBTB44 (zinc finger and BTB domain containing 44),1
